Assay results as given in article PMC7579299 (Anti-Inflammatory & Anti-Allergy Agents in Medicinal …, 2020).

System: MCF-7 (human breast cancer)
Experiment: Anticancer MTT assay, breast cancer cells
Type: cell-based
Details: MCF7, read-out: Anticancer IC50
Summary of the method: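 MCF-7 cells grown in DMEM with 10% FBS, penicillin and streptomycin at 37°C in 5% CO₂. About 5000 cells/well were exposed to test compound at 50-500 µg/mL (1 mg/ml DMSO working solution, 0.45-micron filtered) for 24, 48 or 72 h. MTT was added for 2 h, then lysis buffer for 4 h, and A570 was read. Viability = mean OD/control OD × 100.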

IC50: 1020 nM
Compound: COc1cccc2c1C(=O)c1c(O)c3c(c(O)c1C2=O)C[C@@](O)(C(=O)CO)C[C@@H]3O[C@H]1C[C@H](N)[C@H](O)[C@H](C)O1 [Doxorubicin]
